The source of these data is publication PMC7145526, “The mRNA repressor TRIM71 cooperates with Nonsense-Mediated Decay factors to destabilize the mRNA of CDKN1A/p21”.

No constants are given. Whether binding was seen depends on the method and setting. Binding seen in cells or lysates may run through a third protein.

The assay addresses TRIM71 ΔNHL6 (human). Put plainly: co-IP; TRIM71 ΔNHL6 mutant (Supplementary Figure S8E); cells, tag and beads not stated for this experiment.

B1: UPF1 (protein, UniProt Q92900 1-1129)
chain: MSVEAYGPSSQTLTFLDTEEAELLGADTQGSEFEFTDFTLPSQTQTPPGGPGGPGGGGAGGPGGAGAGAAAGQLDAQVGPEGILQNGAVDDSVAKTSQLLAELNFEEDEEDTYYTKDLPIHACSYCGIHDPACVVYCNTSKKWFCNGRGNTSGSHIVNHLVRAKCKEVTLHKDGPLGETVLECYNCGCRNVFLLGFIPAKADSVVVLLCRQPCASQSSLKDINWDSSQWQPLIQDRCFLSWLVKIPSEQEQLRARQITAQQINKLEELWKENPSATLEDLEKPGVDEEPQHVLLRYEDAYQYQNIFGPLVKLEADYDKKLKESQTQDNITVRWDLGLNKKRIAYFTLPKTDSGNEDLVIIWLRDMRLMQGDEICLRYKGDLAPLWKGIGHVIKVPDNYGDEIAIELRSSVGAPVEVTHNFQVDFVWKSTSFDRMQSALKTFAVDETSVSGYIYHKLLGHEVEDVIIKCQLPKRFTAQGLPDLNHSQVYAVKTVLQRPLSLIQGPPGTGKTVTSATIVYHLARQGNGPVLVCAPSNIAVDQLTEKIHQTGLKVVRLCAKSREAIDSPVSFLALHNQIRNMDSMPELQKLQQLKDETGELSSADEKRYRALKRTAERELLMNADVICCTCVGAGDPRLAKMQFRSILIDESTQATEPECMVPVVLGAKQLILVGDHCQLGPVVMCKKAAKAGLSQSLFERLVVLGIRPIRLQVQYRMHPALSAFPSNIFYEGSLQNGVTAADRVKKGFDFQWPQPDKPMFFYVTQGQEEIASSGTSYLNRTEAANVEKITTKLLKAGAKPDQIGIITPYEGQRSYLVQYMQFSGSLHTKLYQEVEIASVDAFQGREKDFIILSCVRANEHQGIGFLNDPRRLNVALTRARYGVIIVGNPKALSKQPLWNHLLNYYKEQKVLVEGPLNNLRESLMQFSKPRKLVNTINPGARFMTTAMYDAREAIIPGSVYDRSSQGRPSSMYFQTHDQIGMISAGPSHVAAMNIPIPFNLVMPPMPPPGYFGQANGPAAGRGTPKGKTGRGGRQKNRFGLPGPSQTNLPNSQASQDVASQPFSQGALTQGYISMSQPSQMSQPGLSQPELSQDSYLGDEFKSQIDVALSQDSTYQGERAYQHGGVTGLSQY
Turning to B1, the binding result is reported as “no binding”.
